Measurements: PMC13203959, “New inhibitors of the Pseudomonas aeruginosa enzyme, PqsE, and methods assessing their potential to induce a conformational change via active site binding” (mSphere, 2026)
These are yes or no findings as the source states them, for the method shown. In cells and extracts the contact can be indirect. Some binding calls cover weakened binding; strength is not graded here.

Chains of the proteins cited; added tags and fusions are not shown.
UniProt P20581: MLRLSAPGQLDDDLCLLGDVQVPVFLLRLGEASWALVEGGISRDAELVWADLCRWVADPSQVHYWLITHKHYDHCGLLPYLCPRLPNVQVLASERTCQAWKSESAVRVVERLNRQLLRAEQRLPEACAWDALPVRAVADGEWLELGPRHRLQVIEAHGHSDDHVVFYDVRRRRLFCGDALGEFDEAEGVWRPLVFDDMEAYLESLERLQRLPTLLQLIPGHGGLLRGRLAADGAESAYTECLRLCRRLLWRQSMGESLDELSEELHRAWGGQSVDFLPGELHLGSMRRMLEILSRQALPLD
UniProt P54292: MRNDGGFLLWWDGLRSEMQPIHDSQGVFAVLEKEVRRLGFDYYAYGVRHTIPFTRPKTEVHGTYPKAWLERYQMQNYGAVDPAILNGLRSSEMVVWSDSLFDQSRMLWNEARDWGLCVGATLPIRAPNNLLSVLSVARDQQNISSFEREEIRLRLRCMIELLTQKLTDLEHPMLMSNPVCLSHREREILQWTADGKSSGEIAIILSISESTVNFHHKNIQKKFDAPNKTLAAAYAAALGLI

Molecular target: 6xHis-PqsE(WT) (Pseudomonas aeruginosa) (UniProt P20581)
Test: pull-down; purified 6xHis-PqsE(WT) (1 uM final), pre-incubated 10 min with DMSO, HJ1 or HJ5 (up to 100 uM), added to RhlR-containing E. coli lysate in 50 mM Tris-HCl, 150 mM NaCl, 20 mM imidazole, pH 8.0; 4°C; captured on MagneHis Ni resin, eluted with 500 mM imidazole, SDS-PAGE; only the target purified

In the case of “RhlR (from UniProt P54292 1-241) (receptor)”, the binding is reported as “binds”.
